Results: the supplement of paper PMC10849652
This is one part of the list.

Chains of the proteins cited; added tags and fusions are not shown. Lines headed by an entry give the natural chain unless they say otherwise; changes in a name come on top.
UniProt Q9P0U1: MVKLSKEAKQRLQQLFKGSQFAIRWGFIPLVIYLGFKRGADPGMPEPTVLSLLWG
UniProt Q96Q05, whole entry, looked up: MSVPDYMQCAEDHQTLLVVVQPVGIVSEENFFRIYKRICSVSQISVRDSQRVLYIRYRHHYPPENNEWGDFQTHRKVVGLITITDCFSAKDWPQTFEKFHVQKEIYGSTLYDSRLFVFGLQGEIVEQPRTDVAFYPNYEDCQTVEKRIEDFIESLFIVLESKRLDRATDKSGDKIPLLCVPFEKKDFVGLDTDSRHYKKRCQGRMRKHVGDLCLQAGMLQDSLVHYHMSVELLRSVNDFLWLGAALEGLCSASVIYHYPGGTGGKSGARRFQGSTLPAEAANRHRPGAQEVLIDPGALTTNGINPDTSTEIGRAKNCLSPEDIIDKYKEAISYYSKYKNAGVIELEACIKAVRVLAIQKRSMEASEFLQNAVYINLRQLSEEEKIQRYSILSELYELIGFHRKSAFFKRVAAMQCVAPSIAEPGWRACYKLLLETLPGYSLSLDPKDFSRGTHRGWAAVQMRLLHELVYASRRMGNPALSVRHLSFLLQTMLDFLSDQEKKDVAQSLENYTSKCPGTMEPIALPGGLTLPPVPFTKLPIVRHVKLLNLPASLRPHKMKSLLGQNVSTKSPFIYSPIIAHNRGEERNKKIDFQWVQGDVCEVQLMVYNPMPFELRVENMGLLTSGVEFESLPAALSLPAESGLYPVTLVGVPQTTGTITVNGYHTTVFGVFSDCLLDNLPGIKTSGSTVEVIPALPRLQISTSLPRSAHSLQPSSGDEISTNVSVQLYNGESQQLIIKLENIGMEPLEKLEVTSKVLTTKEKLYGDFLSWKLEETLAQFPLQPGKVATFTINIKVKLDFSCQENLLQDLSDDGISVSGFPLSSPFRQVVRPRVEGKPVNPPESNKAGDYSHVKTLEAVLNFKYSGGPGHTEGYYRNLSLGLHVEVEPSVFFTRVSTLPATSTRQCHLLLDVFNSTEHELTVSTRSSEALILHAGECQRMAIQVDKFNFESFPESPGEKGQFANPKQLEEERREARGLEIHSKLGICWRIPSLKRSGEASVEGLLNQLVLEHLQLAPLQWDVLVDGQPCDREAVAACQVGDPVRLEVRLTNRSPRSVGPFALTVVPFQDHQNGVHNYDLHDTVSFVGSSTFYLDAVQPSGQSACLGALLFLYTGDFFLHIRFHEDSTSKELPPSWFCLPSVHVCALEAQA
UniProt P28908: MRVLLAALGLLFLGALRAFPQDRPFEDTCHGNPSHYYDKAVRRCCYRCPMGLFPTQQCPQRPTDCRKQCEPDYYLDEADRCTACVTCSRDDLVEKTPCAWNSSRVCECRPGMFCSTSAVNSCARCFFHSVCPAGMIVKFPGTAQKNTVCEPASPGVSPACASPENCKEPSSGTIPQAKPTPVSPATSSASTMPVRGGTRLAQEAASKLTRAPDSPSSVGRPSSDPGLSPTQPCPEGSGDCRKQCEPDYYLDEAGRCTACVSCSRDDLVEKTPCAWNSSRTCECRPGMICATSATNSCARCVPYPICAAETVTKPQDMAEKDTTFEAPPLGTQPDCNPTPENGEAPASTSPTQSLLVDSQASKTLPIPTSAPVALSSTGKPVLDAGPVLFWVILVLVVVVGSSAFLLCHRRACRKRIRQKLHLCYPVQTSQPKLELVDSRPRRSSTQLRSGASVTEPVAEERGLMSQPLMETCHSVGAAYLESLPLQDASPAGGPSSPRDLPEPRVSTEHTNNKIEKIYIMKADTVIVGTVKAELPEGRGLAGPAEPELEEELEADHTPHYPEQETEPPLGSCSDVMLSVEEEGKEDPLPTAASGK
UniProt Q8WVT3: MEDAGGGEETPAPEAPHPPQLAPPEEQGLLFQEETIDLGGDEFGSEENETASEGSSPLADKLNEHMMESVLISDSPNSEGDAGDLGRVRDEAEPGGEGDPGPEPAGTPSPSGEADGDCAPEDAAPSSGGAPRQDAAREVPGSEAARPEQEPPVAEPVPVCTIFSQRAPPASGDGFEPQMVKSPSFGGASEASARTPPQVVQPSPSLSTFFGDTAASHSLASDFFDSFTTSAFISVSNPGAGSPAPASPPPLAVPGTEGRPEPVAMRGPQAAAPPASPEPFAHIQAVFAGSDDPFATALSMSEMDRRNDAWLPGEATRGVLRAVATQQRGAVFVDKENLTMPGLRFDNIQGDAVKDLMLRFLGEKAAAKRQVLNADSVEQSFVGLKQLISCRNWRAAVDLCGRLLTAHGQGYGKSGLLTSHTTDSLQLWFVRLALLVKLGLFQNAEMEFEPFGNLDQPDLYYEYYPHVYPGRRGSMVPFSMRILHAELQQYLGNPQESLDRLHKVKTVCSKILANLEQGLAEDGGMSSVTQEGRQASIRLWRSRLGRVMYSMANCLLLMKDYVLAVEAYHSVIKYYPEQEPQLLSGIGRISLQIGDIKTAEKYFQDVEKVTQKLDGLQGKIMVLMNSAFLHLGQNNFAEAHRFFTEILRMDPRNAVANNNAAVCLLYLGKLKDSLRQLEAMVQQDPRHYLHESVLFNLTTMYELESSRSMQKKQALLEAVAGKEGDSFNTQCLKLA
UniProt Q7Z392: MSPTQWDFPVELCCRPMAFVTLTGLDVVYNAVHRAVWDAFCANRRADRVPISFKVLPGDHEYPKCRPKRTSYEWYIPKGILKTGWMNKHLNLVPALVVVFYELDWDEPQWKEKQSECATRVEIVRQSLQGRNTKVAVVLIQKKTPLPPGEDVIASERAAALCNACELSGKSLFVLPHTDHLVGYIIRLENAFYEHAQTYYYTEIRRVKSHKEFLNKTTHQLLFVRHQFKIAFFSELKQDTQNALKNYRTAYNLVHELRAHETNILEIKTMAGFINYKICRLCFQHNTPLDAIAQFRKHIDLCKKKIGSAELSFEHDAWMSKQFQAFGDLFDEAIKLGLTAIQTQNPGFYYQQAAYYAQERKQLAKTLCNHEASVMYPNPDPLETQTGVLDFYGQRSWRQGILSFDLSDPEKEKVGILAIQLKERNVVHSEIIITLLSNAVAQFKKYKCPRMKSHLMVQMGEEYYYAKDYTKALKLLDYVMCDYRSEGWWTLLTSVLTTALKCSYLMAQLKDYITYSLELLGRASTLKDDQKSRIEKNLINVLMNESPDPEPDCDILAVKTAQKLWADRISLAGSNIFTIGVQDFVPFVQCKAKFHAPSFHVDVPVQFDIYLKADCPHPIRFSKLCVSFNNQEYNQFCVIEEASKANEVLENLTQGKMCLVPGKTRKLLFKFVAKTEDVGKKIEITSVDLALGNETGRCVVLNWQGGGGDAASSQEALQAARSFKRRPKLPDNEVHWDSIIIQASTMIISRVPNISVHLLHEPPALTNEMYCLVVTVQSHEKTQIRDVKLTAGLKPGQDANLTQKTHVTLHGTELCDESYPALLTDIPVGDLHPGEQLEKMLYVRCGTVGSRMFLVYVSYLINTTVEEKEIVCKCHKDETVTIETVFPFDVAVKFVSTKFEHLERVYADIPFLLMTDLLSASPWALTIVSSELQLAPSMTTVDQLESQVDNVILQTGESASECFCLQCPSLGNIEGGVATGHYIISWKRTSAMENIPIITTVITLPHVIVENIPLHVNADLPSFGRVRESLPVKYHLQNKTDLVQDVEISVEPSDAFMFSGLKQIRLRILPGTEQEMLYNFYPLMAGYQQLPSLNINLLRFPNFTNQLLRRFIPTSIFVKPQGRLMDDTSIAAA
UniProt P06753, whole entry, looked up: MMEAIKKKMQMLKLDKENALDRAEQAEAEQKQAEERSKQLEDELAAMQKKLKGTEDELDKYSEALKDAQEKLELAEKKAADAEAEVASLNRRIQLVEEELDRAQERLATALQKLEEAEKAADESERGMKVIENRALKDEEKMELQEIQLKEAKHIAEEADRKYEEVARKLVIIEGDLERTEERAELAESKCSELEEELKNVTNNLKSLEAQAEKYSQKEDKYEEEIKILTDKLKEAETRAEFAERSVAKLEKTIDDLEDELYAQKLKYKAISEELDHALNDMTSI
UniProt Q8N4H5: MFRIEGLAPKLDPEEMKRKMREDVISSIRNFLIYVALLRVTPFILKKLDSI
UniProt Q9Y5S1: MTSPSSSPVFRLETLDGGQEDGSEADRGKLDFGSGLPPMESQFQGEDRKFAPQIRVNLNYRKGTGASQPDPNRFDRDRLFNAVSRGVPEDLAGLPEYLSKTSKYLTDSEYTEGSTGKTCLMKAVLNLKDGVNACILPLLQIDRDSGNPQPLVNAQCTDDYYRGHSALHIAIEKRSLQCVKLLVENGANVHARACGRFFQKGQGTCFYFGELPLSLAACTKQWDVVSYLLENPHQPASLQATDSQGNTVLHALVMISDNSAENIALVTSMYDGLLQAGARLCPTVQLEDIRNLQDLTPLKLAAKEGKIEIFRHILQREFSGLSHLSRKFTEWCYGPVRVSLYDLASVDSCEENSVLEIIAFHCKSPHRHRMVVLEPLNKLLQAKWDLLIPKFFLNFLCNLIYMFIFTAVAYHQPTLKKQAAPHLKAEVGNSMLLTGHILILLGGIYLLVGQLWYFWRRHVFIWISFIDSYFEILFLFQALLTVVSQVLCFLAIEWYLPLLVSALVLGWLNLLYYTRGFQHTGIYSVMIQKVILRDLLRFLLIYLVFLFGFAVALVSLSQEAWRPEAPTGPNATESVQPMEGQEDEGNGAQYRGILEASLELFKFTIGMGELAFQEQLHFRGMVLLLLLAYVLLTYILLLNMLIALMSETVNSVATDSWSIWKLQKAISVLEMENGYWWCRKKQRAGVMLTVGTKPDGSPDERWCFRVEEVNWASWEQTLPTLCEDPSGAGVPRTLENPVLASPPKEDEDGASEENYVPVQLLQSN

Tests used:
Test in all cases: log2 fold change, soluble protein after heating vs DMSO (PISA); higher = thermal stabilisation; K562 cells, 10 uM, 30 min; active = over 0.2 and 3.5 SD of the protein, either way, in both replicates (recomputed)
[1] = compound: CC1=C(C=C(C=C1)NC(=O)C2=CC(=CC=C2)C(C)(C)C#N)NC3=CC4=C(C=C3)N=CN(C4=O)C
Method in brief: (§1)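 Soluble protein was quantified by TMTpro 16plex LC-MS/MS after channel sums were equalised. It was obtained as the supernatant after 21,000xg for 90 min from pooled aliquots of K562 cells (2×10^6 cells/mL, 10 μM compound, 30 min) heated for 3 min across 48°C-58°C and extracted in PBS with 0.5% NP-40 at 4°C. Thermal stability values are relative to control samples and come from duplicates. They are given as log2 fold changes.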

[2] = compound: CC1=C(C=C(C=C1)NC(=O)C2=CC(=CC=C2)N(C)C)NC(=O)C3=CC=C(C=C3)O
Method in brief: as §1

[3] = compound: CC1=CC=C(C=C1)SC2=C3C=C(SC3=CN=C2)C(=O)N
Method in brief: as §1

[4] = compound: CC1=NC(=CC=C1)C2=C(N=C(N2)C(C)(C)C)C3=CC4=NC=CN=C4C=C3
Method in brief: as §1

Nexturastat A = compound: CCCCN(Cc1ccc(C(=O)NO)cc1)C(=O)Nc1ccccc1 [Nexturastat A]
Method in brief: as §1

vemurafenib = compound: CCCS(=O)(=O)Nc1ccc(F)c(C(=O)c2c[nH]c3ncc(-c4ccc(Cl)cc4)cc23)c1F [vemurafenib]
Method in brief: as §1

[5] = compound: CCCS(=O)(=O)Nc1ccc(F)c(C(=O)c2c[nH]c3ncc(Cl)cc23)c1F
Method in brief: as §1

[6] = compound: CCCc1cc(C)[nH]c(=O)c1CNC(=O)c1cc(-c2ccnc(N3CCN(C)CC3)c2)cc2c1cnn2C(C)C
Method in brief: as §1

givinostat = compound: CCN(CC)Cc1ccc2cc(COC(=O)Nc3ccc(C(=O)NO)cc3)ccc2c1 [givinostat]
Method in brief: as §1

barasertib = compound: CCN(CCCOc1ccc2c(Nc3cc(CC(=O)Nc4cccc(F)c4)[nH]n3)ncnc2c1)CCOP(=O)(O)O [barasertib]
Method in brief: as §1

[7] = compound: CC[C@@H]1C(=O)N(C)c2cnc(Nc3ccc(C(=O)NC4CCN(C)CC4)cc3OC)nc2N1C1CCCC1
Method in brief: as §1

volasertib = compound: CC[C@@H]1C(=O)N(C)c2cnc(Nc3ccc(C(=O)N[C@H]4CC[C@H](N5CCN(CC6CC6)CC5)CC4)cc3OC)nc2N1C(C)C [volasertib]
Method in brief: as §1

[8] = compound: CC[C@H](C)N1C=C(C2=C(C=C(C=C21)C3=CN=C(C=C3)N4CCNCC4)C(=O)NCC5=C(C=C(NC5=O)C)C)C
Method in brief: as §1

epoxomicin = compound: CC[C@H](C)[C@@H](C(=O)N[C@@H]([C@@H](C)O)C(=O)N[C@@H](CC(C)C)C(=O)[C@]1(CO1)C)NC(=O)[C@H]([C@@H](C)CC)N(C)C(=O)C [epoxomicin]
Method in brief: as §1

[9] = compound: CCn1c(C(=O)N(C2CC2)C2CC2)cc2c3c(ncn3C)c(Nc3cc(C)n(C)n3)nc21
Method in brief: as §1

[10] = compound: CCn1cc(-c2ccnc3[nH]c(-c4cccc(CN(C)C)c4)cc23)c(-c2ccc(NC(=O)N(C)C)cc2)n1
Method in brief: as §1

[11] = compound: CN(C)CC(=O)Nc1ccc2[nH]c(=O)c3ccccc3c2c1
Method in brief: as §1

rosiglitazone = compound: CN(CCOC1=CC=C(C=C1)C[C@H]2C(=O)NC(=O)S2)C3=CC=CC=N3 (racemic) [rosiglitazone]
Method in brief: as §1

[12] = compound: CN1C2=C(C3=C1C(=O)N(N=C3)CC4=CC(=CC=C4)N)SC(=C2)S(=O)C
Method in brief: as §1

[13] = compound: CN1CCC(CNc2ccc3ncc(-c4cccc(OC(F)(F)F)c4)n3n2)CC1
Method in brief: as §1

Row | Target | log2 fold change [1] | log2 fold change [2] | log2 fold change [3] | log2 fold change [4] | log2 fold change (Nexturastat A) | log2 fold change (vemurafenib) | log2 fold change [5] | log2 fold change [6] | log2 fold change (givinostat) | log2 fold change (barasertib) | log2 fold change [7] | log2 fold change (volasertib) | log2 fold change [8] | log2 fold change (epoxomicin) | log2 fold change [9] | log2 fold change [10] | log2 fold change [11] | log2 fold change (rosiglitazone) | log2 fold change [12] | log2 fold change [13]
1 | TOMM7 (UniProt Q9P0U1) | inactive: 0.028 | inactive: -0.053 | inactive: -0.007 | inactive: 0.02 | inactive: 0.052 | inactive: 0.221 | inactive: -0.065 | inactive: -0.019 | inactive: 0.017 | inactive: -0.039 | inactive: 0.061 | inactive: -0.131 | inactive: -0.094 | inactive: 0.167 | inactive: 0.062 | inactive: -0.049 | inactive: -0.016 | inactive: -0.029 | inactive: 0 | inactive: 0.06
2 | TRAPPC9 isoform 2 (UniProt Q96Q05) | inactive: 0.048 | inactive: -0.016 | inactive: -0.039 | inactive: -0.007 | inactive: 0.045 | inactive: -0.01 | inactive: 0.008 | inactive: -0.019 | inactive: 0.021 | inactive: 0.016 | inactive: 0.145 | inactive: -0.086 | inactive: 0.008 | inactive: -0.003 | inactive: -0.037 | inactive: -0.054 | inactive: -0.016 | inactive: 0.04 | inactive: 0.062 | inactive: -0.027
3 | TNFRSF8 (UniProt P28908) | inactive: -0.047 | inactive: 0.01 | inactive: -0.076 | inactive: -0.005 | inactive: 0.008 | inactive: -0.028 | inactive: -0.015 | inactive: 0.031 | inactive: -0.007 | inactive: -0.006 | inactive: 0.134 | inactive: 0.011 | inactive: -0.034 | inactive: 0.016 |  | inactive: -0.016 | inactive: 0.009 |  | inactive: -0.051 | inactive: 0.201
4 | TRAPPC12 (UniProt Q8WVT3) | inactive: 0.09 | inactive: -0.042 | inactive: -0.006 | inactive: -0.032 | inactive: 0.026 | inactive: 0.086 | inactive: 0.056 | inactive: 0.016 | inactive: 0.028 | inactive: 0.011 | inactive: -0.03 | inactive: -0.162 | inactive: 0.108 | inactive: 0.054 | inactive: -0.062 | inactive: 0.002 | inactive: 0.006 | inactive: 0.018 | inactive: 0.023 | inactive: -0.008
5 | TRAPPC11 (UniProt Q7Z392) | inactive: 0.098 | inactive: 0.01 | inactive: -0.014 | inactive: -0.053 | inactive: 0.046 | inactive: 0.033 | inactive: 0.025 | inactive: -0.012 | inactive: 0.037 | inactive: 0.025 | inactive: -0.045 | active: -0.275 | inactive: 0.015 | inactive: 0.016 |  | inactive: -0.032 | inactive: 0.032 |  | inactive: 0.004 | inactive: -0.127
6 | TPM3 isoform 4 (UniProt P06753) | inactive: -0.033 | inactive: -0.002 | inactive: -0.009 | inactive: -0.004 | inactive: -0.174 | inactive: -0.05 | inactive: -0.086 | inactive: -0.03 | inactive: -0.077 | inactive: -0.006 | inactive: 0.055 | inactive: 0.08 | inactive: 0.008 | inactive: 0.06 | inactive: 0.021 | inactive: 0.031 | inactive: -0.068 | inactive: 0.02 | inactive: 0.024 | inactive: -0.087
7 | TOMM5 isoform 2 (UniProt Q8N4H5) | inactive: -0.009 | inactive: 0.367 | inactive: 0.005 | inactive: 0.084 | inactive: 0.025 | inactive: 0 | inactive: -0.011 | inactive: 0.141 | inactive: -0.029 | inactive: 0.03 | inactive: -0.003 | inactive: -0.032 | inactive: -0.049 | active: 0.538 |  | inactive: 0.039 | inactive: -0.046 |  | inactive: 0.041 | inactive: 0.116
8 | TRPV2 (UniProt Q9Y5S1) | inactive: 0.034 | inactive: 0.021 | inactive: -0.031 | inactive: -0.009 | inactive: -0.064 | inactive: 0.01 | inactive: -0.013 | inactive: -0.054 | inactive: -0.044 | inactive: 0.001 | inactive: 0.021 | inactive: 0.074 | inactive: 0.02 | inactive: 0.024 | inactive: -0.044 | inactive: -0.031 | inactive: 0.057 | inactive: 0.018 | inactive: -0.055 | inactive: 0.223
